From paper PMC12386296
No constants are given. Whether binding was seen depends on the method and setting. Some results given as binding are weak or reduced against the parent protein; the word gives no strength.

The chains behind the UniProt entries cited, without tags or fusion partners. Where a name states a change or a piece, a line headed by the entry shows the natural chain unless it says otherwise. A line that says so, or that is headed by a name, gives the form on record, which may keep a tag or linker.
AT1R M1 mutant (S326A/S328A/S331A), treated with GRK3 (P30556, form named): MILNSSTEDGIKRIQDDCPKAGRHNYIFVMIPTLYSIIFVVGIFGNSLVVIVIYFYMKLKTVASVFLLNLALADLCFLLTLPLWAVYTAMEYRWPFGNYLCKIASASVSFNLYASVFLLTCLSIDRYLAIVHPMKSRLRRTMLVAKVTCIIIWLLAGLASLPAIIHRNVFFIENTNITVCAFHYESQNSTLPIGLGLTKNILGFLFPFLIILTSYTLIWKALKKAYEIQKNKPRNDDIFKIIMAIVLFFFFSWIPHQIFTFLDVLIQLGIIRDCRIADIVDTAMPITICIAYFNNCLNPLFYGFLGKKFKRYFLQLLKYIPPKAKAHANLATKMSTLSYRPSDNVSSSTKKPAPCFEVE
AT1R M2 mutant (T332A/S335A/T336A/S338A), treated with GRK3 (P30556, form named): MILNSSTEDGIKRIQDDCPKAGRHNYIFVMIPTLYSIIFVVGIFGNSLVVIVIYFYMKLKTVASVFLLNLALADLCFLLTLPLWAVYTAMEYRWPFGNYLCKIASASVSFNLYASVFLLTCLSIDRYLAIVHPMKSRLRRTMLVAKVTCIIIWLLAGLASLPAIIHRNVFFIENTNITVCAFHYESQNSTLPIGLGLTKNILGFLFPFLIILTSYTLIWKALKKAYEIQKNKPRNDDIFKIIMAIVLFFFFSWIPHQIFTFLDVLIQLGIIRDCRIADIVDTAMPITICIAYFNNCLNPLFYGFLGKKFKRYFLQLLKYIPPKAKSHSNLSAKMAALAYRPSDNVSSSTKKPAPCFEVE
AT1R M3 mutant (S346A/S347A/S348A/T349A), treated with GRK3 (P30556, form named): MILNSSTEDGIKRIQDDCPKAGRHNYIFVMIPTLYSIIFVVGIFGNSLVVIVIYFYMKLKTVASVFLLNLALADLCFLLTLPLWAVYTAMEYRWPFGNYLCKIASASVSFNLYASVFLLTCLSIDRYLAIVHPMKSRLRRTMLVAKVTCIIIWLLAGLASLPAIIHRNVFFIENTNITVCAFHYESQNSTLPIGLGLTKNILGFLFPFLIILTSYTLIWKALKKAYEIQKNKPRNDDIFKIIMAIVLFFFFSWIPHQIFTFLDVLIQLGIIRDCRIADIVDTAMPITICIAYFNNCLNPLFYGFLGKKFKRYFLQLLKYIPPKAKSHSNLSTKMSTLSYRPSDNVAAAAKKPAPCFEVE
β-arrestin1, engineered (I386A/V387A/F388A, 7C stabilizing mutations, truncated at residue 393) (P49407, form named): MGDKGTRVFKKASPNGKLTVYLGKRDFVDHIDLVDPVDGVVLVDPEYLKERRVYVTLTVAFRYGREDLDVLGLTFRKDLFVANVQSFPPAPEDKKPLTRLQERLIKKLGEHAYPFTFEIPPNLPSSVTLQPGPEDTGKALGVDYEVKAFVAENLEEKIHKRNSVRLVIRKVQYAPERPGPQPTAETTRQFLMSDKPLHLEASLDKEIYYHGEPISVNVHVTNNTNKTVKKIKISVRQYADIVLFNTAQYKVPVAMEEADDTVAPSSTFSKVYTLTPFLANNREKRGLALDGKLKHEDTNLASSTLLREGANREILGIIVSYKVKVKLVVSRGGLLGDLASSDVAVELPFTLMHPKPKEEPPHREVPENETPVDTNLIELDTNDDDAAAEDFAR

How the values were obtained:
Experiment in all cases: pull-down; MBP pull-down on amylose resin; GRK-phosphorylated MBP-AT1R (AngII) incubated with β-arrestin at a 1.5-fold molar ratio at 25 °C for 30 min, then 3 h with resin; wash 20 mM HEPES, 100 mM NaCl, 0.002% LMNG, 2 mM MgCl2, 10 μM ligand; eluted with 2 mM maltose; analysed by SDS-PAGE; both purified
[1] = biological target: AT1R M1 mutant (S326A/S328A/S331A), treated with GRK2 (human) (UniProt P30556)
[2] = biological target: AT1R M1 mutant (S326A/S328A/S331A), treated with GRK3 (human) (UniProt P30556)
[3] = biological target: AT1R M2 mutant (T332A/S335A/T336A/S338A), treated with GRK2 (human) (UniProt P30556)
[4] = biological target: AT1R M2 mutant (T332A/S335A/T336A/S338A), treated with GRK3 (human) (UniProt P30556)
[5] = biological target: AT1R M3 mutant (S346A/S347A/S348A/T349A), treated with GRK2 (human) (UniProt P30556)
[6] = biological target: AT1R M3 mutant (S346A/S347A/S348A/T349A), treated with GRK3 (human) (UniProt P30556)
[7] = biological target: AT1R wild type, phosphorylated in vitro by GRK2 (human) (UniProt P30556)
[8] = biological target: AT1R wild type, phosphorylated in vitro by GRK3 (human) (UniProt P30556)
[9] = biological target: AT1R wild type, phosphorylated in vitro by GRK5 (human) (UniProt P30556)
[10] = biological target: AT1R wild type, phosphorylated in vitro by GRK6 (human) (UniProt P30556)

binding [1]: binds weakly
binding [2]: binds weakly
binding [3]: binds weakly
binding [4]: binds weakly
binding [5]: binds weakly
binding [6]: binds weakly
binding [7]: binds weakly
binding [8]: binds weakly
binding [9]: binds
binding [10]: binds
Substance: β-arrestin1, engineered (I386A/V387A/F388A, 7C stabilizing mutations, truncated at residue 393) (from UniProt P49407 1-393)
